{"source": "PubChem BioAssay AID1224830 (NIAID, 2016)", "assay": "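Host factors that control LPS-induced TNF expression in human macrophages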 (primary screen)", "cells": "human THP-1 monocytic leukaemia cells, TNF dual-luciferase reporter clone, PMA-differentiated to macrophage-like cells", "knock-down reagent": "siRNA pool against human genes, 50 nM", "timing": "LPS for 4 h, given about 3 days after siRNA transfection", "treatment": "bacterial LPS (TLR4 ligand), 10 ng/ml", "detection": "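Ratio of firefly to renilla light, scaled to the plate median and expressed as a robust z-score per replicate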", "direction": "TNF reporter robust z-score: higher = stronger TNF reporter response to LPS", "hit rule": "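a well is active when its z-score exceeds 2.8 or falls below -1.5; control wells carry no call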", "note": "The deposit covers about 18,000 reagents; shown is a random part of them. In the full data, about 2,900 (16%) are marked active. 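Calls are made per well; low scores hint the gene aids the LPS response, high scores that it dampens it.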 A number with no mark means an inactive call. Repeated entries: four replicate wells of each siRNA pool."}
{"Gene": "BCL2L15", "PubChem SID": "SID315464914", "TNF reporter robust z-score": -0.16}
{"Gene": "BCL2L15", "PubChem SID": "SID315464914", "TNF reporter robust z-score": 0.06}
{"Gene": "BCL2L15", "PubChem SID": "SID315464914", "TNF reporter robust z-score": -0.33}
{"Gene": "BCL2L15", "PubChem SID": "SID315464914", "TNF reporter robust z-score": 0.67}
{"Gene": "GALNT18", "PubChem SID": "SID315464314", "TNF reporter robust z-score": 0.72}
{"Gene": "GALNT18", "PubChem SID": "SID315464314", "TNF reporter robust z-score": 0.71}
{"Gene": "GALNT18", "PubChem SID": "SID315464314", "TNF reporter robust z-score": -0.02}
{"Gene": "FGFR4", "PubChem SID": "SID315448690", "TNF reporter robust z-score": -0.9}
{"Gene": "FGFR4", "PubChem SID": "SID315448690", "TNF reporter robust z-score": -0.18}
{"Gene": "FGFR4", "PubChem SID": "SID315448690", "TNF reporter robust z-score": -0.42}
{"Gene": "FGFR4", "PubChem SID": "SID315448690", "TNF reporter robust z-score": 0.4}
{"Gene": "TMX3", "PubChem SID": "SID315457037", "TNF reporter robust z-score": -0.75}
{"Gene": "TMX3", "PubChem SID": "SID315457037", "TNF reporter robust z-score": -0.57}
{"Gene": "TMX3", "PubChem SID": "SID315457037", "TNF reporter robust z-score": -0.76}
{"Gene": "TMX3", "PubChem SID": "SID315457037", "TNF reporter robust z-score": -0.67}
{"Gene": "LPCAT4", "PubChem SID": "SID315463460", "TNF reporter robust z-score": "-1.76 (active)"}
{"Gene": "LPCAT4", "PubChem SID": "SID315463460", "TNF reporter robust z-score": "-1.71 (active)"}
{"Gene": "LPCAT4", "PubChem SID": "SID315463460", "TNF reporter robust z-score": -1.19}
{"Gene": "LPCAT4", "PubChem SID": "SID315463460", "TNF reporter robust z-score": -0.77}

2 entries from above, reformatted.
Gene,PubChem SID,TNF reporter robust z-score
FGFR4,SID315448690,0.4
TMX3,SID315457037,-0.75

Additional records follow:
{"Gene": "CLEC4A", "PubChem SID": "SID315456376", "TNF reporter robust z-score": "-1.7 (active)"}
{"Gene": "CLEC4A", "PubChem SID": "SID315456376", "TNF reporter robust z-score": -1.28}
{"Gene": "CLEC4A", "PubChem SID": "SID315456376", "TNF reporter robust z-score": "-1.95 (active)"}
{"Gene": "CLEC4A", "PubChem SID": "SID315456376", "TNF reporter robust z-score": "-2.01 (active)"}
{"Gene": "DPYSL4", "PubChem SID": "SID315454200", "TNF reporter robust z-score": 0.3}
{"Gene": "DPYSL4", "PubChem SID": "SID315454200", "TNF reporter robust z-score": 0.42}
{"Gene": "DPYSL4", "PubChem SID": "SID315454200", "TNF reporter robust z-score": -0.55}
{"Gene": "DPYSL4", "PubChem SID": "SID315454200", "TNF reporter robust z-score": -0.11}
{"Gene": "TSPAN9", "PubChem SID": "SID315454410", "TNF reporter robust z-score": -0.37}
{"Gene": "TSPAN9", "PubChem SID": "SID315454410", "TNF reporter robust z-score": -0.97}
{"Gene": "TSPAN9", "PubChem SID": "SID315454410", "TNF reporter robust z-score": -0.51}
{"Gene": "TSPAN9", "PubChem SID": "SID315454410", "TNF reporter robust z-score": -0.55}
{"Gene": "NOLC1", "PubChem SID": "SID315453134", "TNF reporter robust z-score": "-1.63 (active)"}
{"Gene": "NOLC1", "PubChem SID": "SID315453134", "TNF reporter robust z-score": -0.9}
{"Gene": "NOLC1", "PubChem SID": "SID315453134", "TNF reporter robust z-score": -0.23}
{"Gene": "NOLC1", "PubChem SID": "SID315453134", "TNF reporter robust z-score": -1.37}
{"Gene": "PRR15L", "PubChem SID": "SID315459242", "TNF reporter robust z-score": 1.22}
{"Gene": "PRR15L", "PubChem SID": "SID315459242", "TNF reporter robust z-score": -0.35}
{"Gene": "PRR15L", "PubChem SID": "SID315459242", "TNF reporter robust z-score": -0.48}
{"Gene": "PRR15L", "PubChem SID": "SID315459242", "TNF reporter robust z-score": -0.86}
{"Gene": "SAMTOR", "PubChem SID": "SID315462594", "TNF reporter robust z-score": "-1.7 (active)"}
{"Gene": "SAMTOR", "PubChem SID": "SID315462594", "TNF reporter robust z-score": -1.38}
{"Gene": "SAMTOR", "PubChem SID": "SID315462594", "TNF reporter robust z-score": "-1.56 (active)"}
{"Gene": "SAMTOR", "PubChem SID": "SID315462594", "TNF reporter robust z-score": "-1.59 (active)"}
{"Gene": "ST3GAL4", "PubChem SID": "SID315451428", "TNF reporter robust z-score": 0.09}
{"Gene": "ST3GAL4", "PubChem SID": "SID315451428", "TNF reporter robust z-score": -0.1}
{"Gene": "ST3GAL4", "PubChem SID": "SID315451428", "TNF reporter robust z-score": -0.55}
{"Gene": "ST3GAL4", "PubChem SID": "SID315451428", "TNF reporter robust z-score": -0.21}
